# These are yes or no findings as the source states them, for the method shown. In cells and extracts the contact can be indirect. Some results given as binding are weak or reduced against the parent protein; the word gives no strength. Where a sequence is shown, tags or fusion partners need not be part of it.
# T1: GEF-H1 double-mutant S324A/S886A (human) (UniProt Q92974)
# T1 sequence: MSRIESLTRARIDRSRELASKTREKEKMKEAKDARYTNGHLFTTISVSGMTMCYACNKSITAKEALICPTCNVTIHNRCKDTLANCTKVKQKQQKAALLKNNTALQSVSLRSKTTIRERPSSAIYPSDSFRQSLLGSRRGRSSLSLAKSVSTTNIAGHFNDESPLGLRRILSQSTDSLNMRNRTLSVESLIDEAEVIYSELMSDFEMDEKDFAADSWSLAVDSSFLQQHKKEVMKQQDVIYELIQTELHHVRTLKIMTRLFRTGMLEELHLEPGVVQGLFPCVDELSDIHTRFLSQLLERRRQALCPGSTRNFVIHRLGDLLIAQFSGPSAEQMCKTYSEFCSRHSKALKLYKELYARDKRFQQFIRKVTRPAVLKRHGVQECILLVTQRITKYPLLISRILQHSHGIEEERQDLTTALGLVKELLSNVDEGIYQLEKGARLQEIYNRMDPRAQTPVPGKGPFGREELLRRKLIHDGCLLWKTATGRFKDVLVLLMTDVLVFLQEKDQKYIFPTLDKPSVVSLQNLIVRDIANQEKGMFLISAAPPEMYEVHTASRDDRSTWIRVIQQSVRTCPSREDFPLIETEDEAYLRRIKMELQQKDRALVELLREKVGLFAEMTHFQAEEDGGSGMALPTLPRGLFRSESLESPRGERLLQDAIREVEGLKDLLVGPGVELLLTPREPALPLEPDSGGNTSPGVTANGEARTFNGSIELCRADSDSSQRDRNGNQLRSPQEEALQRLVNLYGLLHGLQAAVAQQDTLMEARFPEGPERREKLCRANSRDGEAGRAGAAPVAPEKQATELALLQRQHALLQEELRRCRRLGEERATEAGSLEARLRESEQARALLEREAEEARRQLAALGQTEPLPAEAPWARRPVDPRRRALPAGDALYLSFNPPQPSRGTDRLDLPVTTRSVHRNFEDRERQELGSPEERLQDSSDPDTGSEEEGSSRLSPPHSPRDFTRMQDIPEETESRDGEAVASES
# T2: GEF-H1 S399A/S886A double mutant (human) (UniProt Q92974)
# T2 sequence: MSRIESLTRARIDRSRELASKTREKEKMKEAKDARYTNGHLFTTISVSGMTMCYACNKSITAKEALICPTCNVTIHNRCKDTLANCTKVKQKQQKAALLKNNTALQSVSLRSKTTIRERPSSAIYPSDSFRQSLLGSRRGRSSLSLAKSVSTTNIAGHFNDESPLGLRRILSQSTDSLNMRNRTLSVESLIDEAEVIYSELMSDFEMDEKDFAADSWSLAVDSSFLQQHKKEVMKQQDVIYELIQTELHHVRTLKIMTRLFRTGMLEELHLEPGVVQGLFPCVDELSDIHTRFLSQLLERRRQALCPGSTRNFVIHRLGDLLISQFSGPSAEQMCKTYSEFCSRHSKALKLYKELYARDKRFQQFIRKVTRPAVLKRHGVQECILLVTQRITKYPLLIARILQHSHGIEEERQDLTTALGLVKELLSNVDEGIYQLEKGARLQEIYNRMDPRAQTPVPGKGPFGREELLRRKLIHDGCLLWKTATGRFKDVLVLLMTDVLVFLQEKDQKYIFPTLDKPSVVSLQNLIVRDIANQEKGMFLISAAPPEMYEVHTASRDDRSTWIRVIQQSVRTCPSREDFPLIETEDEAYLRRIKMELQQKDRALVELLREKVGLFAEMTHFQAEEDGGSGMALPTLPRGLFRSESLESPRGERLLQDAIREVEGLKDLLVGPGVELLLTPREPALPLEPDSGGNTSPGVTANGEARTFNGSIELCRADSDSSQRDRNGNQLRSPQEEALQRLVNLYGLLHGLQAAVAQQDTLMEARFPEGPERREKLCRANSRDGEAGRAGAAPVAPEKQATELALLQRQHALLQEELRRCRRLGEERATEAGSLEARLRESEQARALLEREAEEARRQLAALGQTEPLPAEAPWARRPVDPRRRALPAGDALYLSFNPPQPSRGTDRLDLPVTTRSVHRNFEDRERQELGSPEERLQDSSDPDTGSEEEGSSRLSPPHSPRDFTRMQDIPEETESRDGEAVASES
# B1: human IKKε (pcDNA3-huIKKε-flag) (enzyme, UniProt Q14164 1-716)
# chain: MQSTANYLWHTDDLLGQGATASVYKARNKKSGELVAVKVFNTTSYLRPREVQVREFEVLRKLNHQNIVKLFAVEETGGSRQKVLVMEYCSSGSLLSVLESPENAFGLPEDEFLVVLRCVVAGMNHLRENGIVHRDIKPGNIMRLVGEEGQSIYKLTDFGAARELDDDEKFVSVYGTEEYLHPDMYERAVLRKPQQKAFGVTVDLWSIGVTLYHAATGSLPFIPFGGPRRNKEIMYRITTEKPAGAIAGAQRRENGPLEWSYTLPITCQLSLGLQSQLVPILANILEVEQAKCWGFDQFFAETSDILQRVVVHVFSLSQAVLHHIYIHAHNTIAIFQEAVHKQTSVAPRHQEYLFEGHLCVLEPSVSAQHIAHTTASSPLTLFSTAIPKGLAFRDPALDVPKFVPKVDLQADYNTAKGVLGAGYQALRLARALLDGQELMFRGLHWVMEVLQATCRRTLEVARTSLLYLSSSLGTERFSSVAGTPEIQELKAAAELRSRLRTLAEVLSRCSQNITETQESLSSLNRELVKSRDQVHEDRSIQQIQCCLDKMNFIYKQFKKSRMRPGLGYNEEQIHKLDKVNFSHLAKRLLQVFQEECVQKYQASLVTHGKRMRVVHETRNHLRLVGCSVAACNTEAQGVQESLSKLLEELSHQLLQDRAKGAQASPPPIAPYPSPTRKDLLLHMQELCEGMKLLASDLLDNNRIIERLNRVPAPPDV
# Experiments:
# [1] = molecular target: T1, GEF-H1 double-mutant S324A/S886A (human); test: co-IP; HEK293T cells transfected with the indicated plasmids (GEF-H1 WT or variants with IRF5, IKKε, IKKβ; with or without RIPK2 or NOD2); precipitated with anti-GEF-H1, protein G agarose; lysis buffer 1% NP-40, 20 mM Tris-HCl pH 7.4, 150 mM NaCl; partners detected by western blot
# [2] = molecular target: T2, GEF-H1 S399A/S886A double mutant (human); test: as above
binder,measurement,setting,value
B1,binding,[1],binds
same,binding,[2],binds
